PubChem BioAssay AID1259405 – NCATS – 2018
The whole screen tested about 50,000 reagents; below is a part drawn at random. About 4,000 of all reagents (8%) count as active. 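Mouse siRNA library applied to hamster cells; one well for each siRNA.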 Reagents against one gene are numbered here.

Test: 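Silenced genes that increase secreted GFP made by CHO cells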 (primary screen)
Cell system: Chinese hamster CHO-K1 ovary cells with stable secreted eGFP expression
Reagent: single siRNA against mouse genes, 0.8 pmol siRNA per well (2 µl of 400 nM stock)
Duration: 3 days
Detection: 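Per-well intracellular GFP measured by laser scanning cytometry, plus viability from ATP luminescence, each relative to plate median of non-targeting control wells, in %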
Scale: GFP, % of control: higher = more GFP per well, higher productivity; viability (ATP), % of control: higher = more viable cells (more ATP)
Rule for the call: 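Called active when intracellular GFP, relative to negative control, is at or above 120%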

gene symbol	reagent no.	GFP, % of control	viability (ATP), % of control	Outcome
Sp7	1	100	72.1	inactive
Sp7	2	75.1	78.6	inactive
Sp7	3	81	96.8	inactive
Or6c1b	1	216	80.8	active
Or6c1b	2	29.1	52.2	inactive
Or6c1b	3	118	73.3	inactive
Cenpb	1	67.4	75.2	inactive
Cenpb	2	68.7	45	inactive
Cenpb	3	86.2	81	inactive
Rhebl1	1	111	110	inactive
Rhebl1	2	96.1	107	inactive
Rhebl1	3	63.8	86.1	inactive
Fzd4	1	57.1	99.4	inactive
Fzd4	2	147	94	active
Errfi1	1	126	90.1	active
Errfi1	2	138	94.3	active
Errfi1	3	80.7	72.7	inactive
Cdkl3	1	160	95.1	active
Cdkl3	2	48.9	46.4	inactive
Cdkl3	3	84.5	78.7	inactive
Sult1d1	1	106	113	inactive
Sult1d1	2	88.1	86.6	inactive
Sult1d1	3	52.2	62.1	inactive
Mttp	1	68.4	46.6	inactive
Mttp	2	61.3	66.9	inactive
Mttp	3	90.3	68.5	inactive
Tas2r119	1	83.3	73.3	inactive
Tas2r119	2	67.7	89	inactive
Tas2r119	3	72.5	71	inactive
Gpd1l	1	78	94.1	inactive
Gpd1l	2	41.2	40.3	inactive
Gpd1l	3	84.5	84.6	inactive
Or4a73	1	119	100	inactive
Or4a73	2	138	78.2	active
Or4a73	3	70.2	90.7	inactive
Fbxw9	1	62.2	72.6	inactive
Fbxw9	2	74.5	62.9	inactive
Fbxw9	3	84.5	115	inactive
Sack1h	1	124	98.3	active
Sack1h	2	58.3	70.2	inactive
Sack1h	3	96.3	82	inactive
Sprn	1	135	64.4	active
Sprn	2	76.2	94.3	inactive
Sprn	3	209	131	active
Fabp5	1	76.7	106	inactive
Fabp5	2	70.7	63.7	inactive
Fabp5	3	43.6	40.5	inactive
Slc16a6	1	101	105	inactive
Slc16a6	2	112	117	inactive
Slc16a6	3	114	46.3	inactive
Nr1d1	1	87.8	86.6	inactive
Nr1d1	2	53.7	57.9	inactive
Cxxc5	1	67	77.4	inactive
Cxxc5	2	95.8	98.4	inactive
Cxxc5	3	74.1	88.8	inactive
Smurf1	1	92.7	77.4	inactive
Smurf1	2	73.4	86.3	inactive
Smurf1	3	111	103	inactive

Hits, among the entries above:
gene symbol	reagent no.	GFP, % of control	viability (ATP), % of control	Outcome
Or6c1b	1	216	80.8	active
Fzd4	2	147	94	active
Errfi1	1	126	90.1	active
Errfi1	2	138	94.3	active
Cdkl3	1	160	95.1	active
Or4a73	2	138	78.2	active
Sack1h	1	124	98.3	active
Sprn	1	135	64.4	active
Sprn	3	209	131	active
